Measured values: PMC6139139
These are yes or no findings as the source states them, for the method shown. Binding seen in cells or lysates may run through a third protein. Some binding calls cover weakened binding; strength is not graded here. One block for each substance: values may come before it.

The chains behind the UniProt entries cited, without tags or fusion partners. Residues count along the entry.
UniProt Q8BYM5, residues 35-825: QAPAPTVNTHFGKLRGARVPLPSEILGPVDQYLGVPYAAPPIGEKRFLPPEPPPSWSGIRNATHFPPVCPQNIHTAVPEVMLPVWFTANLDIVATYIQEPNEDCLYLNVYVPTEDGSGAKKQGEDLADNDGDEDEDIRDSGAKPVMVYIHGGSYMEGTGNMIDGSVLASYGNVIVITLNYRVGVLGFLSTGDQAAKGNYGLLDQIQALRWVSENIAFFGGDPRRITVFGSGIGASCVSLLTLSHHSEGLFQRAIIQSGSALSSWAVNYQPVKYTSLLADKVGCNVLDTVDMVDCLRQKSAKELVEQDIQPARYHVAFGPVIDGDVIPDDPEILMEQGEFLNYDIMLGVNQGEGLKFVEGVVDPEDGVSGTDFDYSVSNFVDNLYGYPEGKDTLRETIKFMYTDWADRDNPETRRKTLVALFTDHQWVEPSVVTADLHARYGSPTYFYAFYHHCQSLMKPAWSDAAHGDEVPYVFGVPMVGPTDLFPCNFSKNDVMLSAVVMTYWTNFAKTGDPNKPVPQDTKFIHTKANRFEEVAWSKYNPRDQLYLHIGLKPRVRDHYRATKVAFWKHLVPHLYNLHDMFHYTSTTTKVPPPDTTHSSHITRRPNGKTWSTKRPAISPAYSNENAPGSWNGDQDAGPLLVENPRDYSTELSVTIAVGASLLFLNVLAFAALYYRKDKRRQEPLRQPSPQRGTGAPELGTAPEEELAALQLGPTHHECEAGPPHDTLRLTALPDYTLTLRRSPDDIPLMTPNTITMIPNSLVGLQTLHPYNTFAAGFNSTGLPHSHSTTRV
UniProt P23819, residues 25-883: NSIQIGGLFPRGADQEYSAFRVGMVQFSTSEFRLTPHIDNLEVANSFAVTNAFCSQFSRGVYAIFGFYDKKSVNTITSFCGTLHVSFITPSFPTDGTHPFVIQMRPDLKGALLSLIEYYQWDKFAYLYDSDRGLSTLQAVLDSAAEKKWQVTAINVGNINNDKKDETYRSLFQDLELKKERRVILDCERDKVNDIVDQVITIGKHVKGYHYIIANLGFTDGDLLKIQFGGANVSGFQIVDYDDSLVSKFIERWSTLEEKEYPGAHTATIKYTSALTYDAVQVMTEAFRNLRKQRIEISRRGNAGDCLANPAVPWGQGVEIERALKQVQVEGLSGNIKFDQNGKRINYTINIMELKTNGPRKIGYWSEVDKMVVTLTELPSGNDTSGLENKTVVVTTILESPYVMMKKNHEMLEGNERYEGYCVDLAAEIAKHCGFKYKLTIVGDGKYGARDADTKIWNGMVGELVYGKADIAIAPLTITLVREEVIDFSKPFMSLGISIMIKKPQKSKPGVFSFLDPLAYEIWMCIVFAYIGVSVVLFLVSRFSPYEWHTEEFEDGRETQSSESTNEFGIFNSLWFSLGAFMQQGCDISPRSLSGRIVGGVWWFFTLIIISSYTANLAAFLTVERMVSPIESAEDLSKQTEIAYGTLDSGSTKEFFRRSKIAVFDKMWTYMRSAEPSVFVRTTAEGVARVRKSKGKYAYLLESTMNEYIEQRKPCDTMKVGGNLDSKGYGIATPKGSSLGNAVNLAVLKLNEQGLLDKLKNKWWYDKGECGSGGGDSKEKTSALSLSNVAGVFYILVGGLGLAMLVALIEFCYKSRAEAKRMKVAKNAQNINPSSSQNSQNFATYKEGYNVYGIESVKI
UniProt P39688: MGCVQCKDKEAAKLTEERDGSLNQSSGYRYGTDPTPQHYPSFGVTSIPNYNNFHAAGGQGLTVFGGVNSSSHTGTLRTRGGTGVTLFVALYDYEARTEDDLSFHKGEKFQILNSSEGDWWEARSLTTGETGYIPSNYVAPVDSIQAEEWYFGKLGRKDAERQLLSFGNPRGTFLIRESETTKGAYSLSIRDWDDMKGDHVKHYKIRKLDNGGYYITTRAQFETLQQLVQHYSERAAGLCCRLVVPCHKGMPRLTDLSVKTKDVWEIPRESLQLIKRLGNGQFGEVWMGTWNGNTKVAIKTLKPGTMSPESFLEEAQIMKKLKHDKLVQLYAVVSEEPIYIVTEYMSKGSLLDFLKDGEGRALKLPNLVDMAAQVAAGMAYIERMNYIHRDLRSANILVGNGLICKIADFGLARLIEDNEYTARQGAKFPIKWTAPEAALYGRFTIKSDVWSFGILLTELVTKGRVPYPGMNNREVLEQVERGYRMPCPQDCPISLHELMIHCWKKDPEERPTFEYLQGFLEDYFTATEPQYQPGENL
UniProt Q01097, residues 27-1482: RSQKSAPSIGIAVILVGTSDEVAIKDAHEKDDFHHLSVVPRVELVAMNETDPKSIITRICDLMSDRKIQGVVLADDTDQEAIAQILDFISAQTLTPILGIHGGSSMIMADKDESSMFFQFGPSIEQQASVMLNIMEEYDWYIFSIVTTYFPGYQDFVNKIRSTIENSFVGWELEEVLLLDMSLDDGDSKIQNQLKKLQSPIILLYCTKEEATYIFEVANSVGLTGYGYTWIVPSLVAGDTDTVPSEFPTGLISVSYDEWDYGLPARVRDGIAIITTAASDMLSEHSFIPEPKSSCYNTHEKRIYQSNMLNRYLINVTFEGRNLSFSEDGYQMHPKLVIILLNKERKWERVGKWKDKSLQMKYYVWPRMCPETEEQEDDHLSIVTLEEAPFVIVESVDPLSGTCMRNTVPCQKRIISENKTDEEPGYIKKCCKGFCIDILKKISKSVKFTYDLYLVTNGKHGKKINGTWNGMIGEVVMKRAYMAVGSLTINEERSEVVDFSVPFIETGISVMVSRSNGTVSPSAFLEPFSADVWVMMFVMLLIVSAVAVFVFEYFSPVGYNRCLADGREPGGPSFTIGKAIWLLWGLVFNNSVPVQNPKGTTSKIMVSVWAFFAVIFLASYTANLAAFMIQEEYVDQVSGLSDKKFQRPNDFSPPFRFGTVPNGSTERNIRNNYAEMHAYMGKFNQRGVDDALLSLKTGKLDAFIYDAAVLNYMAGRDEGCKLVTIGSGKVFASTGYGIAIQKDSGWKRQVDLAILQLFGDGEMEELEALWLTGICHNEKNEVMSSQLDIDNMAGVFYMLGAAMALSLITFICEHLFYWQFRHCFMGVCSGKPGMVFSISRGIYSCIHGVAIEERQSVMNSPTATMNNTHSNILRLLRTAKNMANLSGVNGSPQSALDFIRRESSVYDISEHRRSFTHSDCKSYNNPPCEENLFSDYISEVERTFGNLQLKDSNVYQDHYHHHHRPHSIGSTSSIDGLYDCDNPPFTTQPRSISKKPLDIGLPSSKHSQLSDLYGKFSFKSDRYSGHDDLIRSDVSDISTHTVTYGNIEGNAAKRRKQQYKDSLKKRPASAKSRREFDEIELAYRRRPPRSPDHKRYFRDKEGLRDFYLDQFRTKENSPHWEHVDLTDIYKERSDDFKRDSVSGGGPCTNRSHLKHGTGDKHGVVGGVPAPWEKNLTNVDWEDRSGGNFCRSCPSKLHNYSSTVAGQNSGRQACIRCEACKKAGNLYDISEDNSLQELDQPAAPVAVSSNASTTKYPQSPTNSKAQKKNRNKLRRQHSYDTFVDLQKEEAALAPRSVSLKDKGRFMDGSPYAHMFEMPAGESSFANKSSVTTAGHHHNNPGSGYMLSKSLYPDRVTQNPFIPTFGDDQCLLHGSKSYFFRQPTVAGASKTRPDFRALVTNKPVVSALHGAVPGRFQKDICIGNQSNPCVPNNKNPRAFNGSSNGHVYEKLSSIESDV
UniProt Q4ACU6: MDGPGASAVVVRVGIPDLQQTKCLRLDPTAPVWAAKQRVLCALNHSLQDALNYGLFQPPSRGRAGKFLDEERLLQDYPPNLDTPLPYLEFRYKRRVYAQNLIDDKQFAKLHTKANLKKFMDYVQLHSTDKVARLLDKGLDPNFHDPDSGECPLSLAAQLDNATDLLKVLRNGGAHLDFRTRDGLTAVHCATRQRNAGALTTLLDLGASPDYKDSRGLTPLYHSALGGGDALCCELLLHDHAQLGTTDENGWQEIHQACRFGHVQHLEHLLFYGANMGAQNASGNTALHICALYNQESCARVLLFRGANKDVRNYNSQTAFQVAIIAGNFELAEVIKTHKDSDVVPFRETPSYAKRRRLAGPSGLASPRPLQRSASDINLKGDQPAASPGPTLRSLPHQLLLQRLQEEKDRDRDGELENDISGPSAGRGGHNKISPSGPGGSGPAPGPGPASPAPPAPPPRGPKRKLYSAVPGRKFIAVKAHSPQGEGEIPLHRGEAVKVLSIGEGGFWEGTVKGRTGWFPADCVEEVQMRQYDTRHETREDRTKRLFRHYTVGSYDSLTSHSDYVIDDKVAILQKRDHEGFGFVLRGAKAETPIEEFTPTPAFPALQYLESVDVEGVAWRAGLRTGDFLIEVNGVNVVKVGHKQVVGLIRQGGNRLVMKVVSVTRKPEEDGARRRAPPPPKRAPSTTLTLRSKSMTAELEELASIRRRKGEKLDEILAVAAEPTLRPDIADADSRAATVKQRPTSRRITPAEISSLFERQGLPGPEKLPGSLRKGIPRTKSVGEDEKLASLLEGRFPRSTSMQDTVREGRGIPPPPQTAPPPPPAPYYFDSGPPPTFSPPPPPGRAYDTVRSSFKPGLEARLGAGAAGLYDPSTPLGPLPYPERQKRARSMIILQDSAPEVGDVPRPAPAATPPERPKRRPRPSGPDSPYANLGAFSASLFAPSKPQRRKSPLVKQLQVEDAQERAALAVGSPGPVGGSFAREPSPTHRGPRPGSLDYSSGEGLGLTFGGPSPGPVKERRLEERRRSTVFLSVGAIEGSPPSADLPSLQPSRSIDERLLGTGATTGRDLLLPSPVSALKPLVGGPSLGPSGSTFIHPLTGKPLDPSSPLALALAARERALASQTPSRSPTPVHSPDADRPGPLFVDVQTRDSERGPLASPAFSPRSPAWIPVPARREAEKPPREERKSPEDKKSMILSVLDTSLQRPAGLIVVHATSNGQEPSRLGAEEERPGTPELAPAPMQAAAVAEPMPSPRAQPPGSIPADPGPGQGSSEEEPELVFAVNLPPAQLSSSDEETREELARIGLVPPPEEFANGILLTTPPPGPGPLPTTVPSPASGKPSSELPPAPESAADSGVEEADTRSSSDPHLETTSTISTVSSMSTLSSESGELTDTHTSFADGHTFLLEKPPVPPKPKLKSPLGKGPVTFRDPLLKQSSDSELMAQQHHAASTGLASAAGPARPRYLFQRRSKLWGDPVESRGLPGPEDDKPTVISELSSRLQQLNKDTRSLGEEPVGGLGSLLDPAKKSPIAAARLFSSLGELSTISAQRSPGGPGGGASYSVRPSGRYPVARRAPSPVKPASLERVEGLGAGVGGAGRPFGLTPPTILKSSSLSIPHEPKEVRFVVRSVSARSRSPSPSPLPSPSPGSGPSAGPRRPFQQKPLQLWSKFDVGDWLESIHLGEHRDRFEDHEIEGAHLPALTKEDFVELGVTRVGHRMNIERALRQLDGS
UniProt Q3UVX5, residues 19-1203: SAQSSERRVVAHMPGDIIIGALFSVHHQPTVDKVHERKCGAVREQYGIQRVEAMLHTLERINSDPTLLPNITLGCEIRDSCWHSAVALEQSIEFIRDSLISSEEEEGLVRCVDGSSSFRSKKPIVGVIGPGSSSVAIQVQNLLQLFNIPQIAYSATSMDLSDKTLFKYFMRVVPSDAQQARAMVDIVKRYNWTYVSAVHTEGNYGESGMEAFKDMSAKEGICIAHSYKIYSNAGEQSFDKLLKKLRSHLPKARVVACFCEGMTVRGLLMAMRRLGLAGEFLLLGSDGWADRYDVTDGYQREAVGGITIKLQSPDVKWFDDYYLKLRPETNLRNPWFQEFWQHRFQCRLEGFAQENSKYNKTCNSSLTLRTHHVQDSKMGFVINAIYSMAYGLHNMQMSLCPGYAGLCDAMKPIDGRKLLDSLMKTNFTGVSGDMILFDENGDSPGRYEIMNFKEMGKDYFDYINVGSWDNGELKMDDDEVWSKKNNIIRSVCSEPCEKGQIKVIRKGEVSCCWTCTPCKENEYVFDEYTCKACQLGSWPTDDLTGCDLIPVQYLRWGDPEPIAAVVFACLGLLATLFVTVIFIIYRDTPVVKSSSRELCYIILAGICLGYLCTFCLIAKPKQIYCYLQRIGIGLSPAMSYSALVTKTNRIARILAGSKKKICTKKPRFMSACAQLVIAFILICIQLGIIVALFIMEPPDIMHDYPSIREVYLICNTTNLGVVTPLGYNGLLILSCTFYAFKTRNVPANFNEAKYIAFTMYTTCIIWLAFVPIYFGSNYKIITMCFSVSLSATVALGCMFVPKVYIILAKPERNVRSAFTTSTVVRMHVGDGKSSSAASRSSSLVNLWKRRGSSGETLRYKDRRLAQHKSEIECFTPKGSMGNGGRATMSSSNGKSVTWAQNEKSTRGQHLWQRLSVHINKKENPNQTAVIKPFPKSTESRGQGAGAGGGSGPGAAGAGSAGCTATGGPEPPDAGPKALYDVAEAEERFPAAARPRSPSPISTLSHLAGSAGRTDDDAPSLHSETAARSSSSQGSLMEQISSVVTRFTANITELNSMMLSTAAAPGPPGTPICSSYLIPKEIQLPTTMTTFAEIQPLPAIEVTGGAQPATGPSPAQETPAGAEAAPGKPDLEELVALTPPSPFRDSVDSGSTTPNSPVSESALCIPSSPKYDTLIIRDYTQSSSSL

What was measured:
[1] = target: SAP97 (mouse (endogenous in mouse brain)) (UniProt Q811D0); test: co-IP; quantitative multiplex co-immunoprecipitation (QMI): IP antibodies on Luminex beads incubated overnight at 4 C with NP-40 lysate of P2 synaptosomes from mouse hippocampus, probed with biotinylated antibodies and streptavidin-PE, read on a flow cytometer; four ASD models (Shank3B-/-, Shank3 delta ex4-9+/-, Ube3a2xTG, E12.5 VPA) against littermate controls; only changes against control are told
[2] = target: T1, Homer1 (mouse (endogenous in mouse brain)) (UniProt Q9Z2Y3); test: as above
T1 sequence: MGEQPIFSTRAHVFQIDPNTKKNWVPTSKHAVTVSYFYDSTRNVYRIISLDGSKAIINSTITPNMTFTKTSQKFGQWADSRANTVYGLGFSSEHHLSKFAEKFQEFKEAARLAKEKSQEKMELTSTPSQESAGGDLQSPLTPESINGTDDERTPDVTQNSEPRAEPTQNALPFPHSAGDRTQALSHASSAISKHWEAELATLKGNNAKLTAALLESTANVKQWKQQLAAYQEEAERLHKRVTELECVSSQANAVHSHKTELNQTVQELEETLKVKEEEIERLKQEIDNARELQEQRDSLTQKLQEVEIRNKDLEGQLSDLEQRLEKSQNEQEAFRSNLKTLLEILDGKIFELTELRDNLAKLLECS

[3] = target: T2, SynGAP1 (mouse (endogenous in mouse brain)) (UniProt F6SEU4); test: as above
T2 sequence: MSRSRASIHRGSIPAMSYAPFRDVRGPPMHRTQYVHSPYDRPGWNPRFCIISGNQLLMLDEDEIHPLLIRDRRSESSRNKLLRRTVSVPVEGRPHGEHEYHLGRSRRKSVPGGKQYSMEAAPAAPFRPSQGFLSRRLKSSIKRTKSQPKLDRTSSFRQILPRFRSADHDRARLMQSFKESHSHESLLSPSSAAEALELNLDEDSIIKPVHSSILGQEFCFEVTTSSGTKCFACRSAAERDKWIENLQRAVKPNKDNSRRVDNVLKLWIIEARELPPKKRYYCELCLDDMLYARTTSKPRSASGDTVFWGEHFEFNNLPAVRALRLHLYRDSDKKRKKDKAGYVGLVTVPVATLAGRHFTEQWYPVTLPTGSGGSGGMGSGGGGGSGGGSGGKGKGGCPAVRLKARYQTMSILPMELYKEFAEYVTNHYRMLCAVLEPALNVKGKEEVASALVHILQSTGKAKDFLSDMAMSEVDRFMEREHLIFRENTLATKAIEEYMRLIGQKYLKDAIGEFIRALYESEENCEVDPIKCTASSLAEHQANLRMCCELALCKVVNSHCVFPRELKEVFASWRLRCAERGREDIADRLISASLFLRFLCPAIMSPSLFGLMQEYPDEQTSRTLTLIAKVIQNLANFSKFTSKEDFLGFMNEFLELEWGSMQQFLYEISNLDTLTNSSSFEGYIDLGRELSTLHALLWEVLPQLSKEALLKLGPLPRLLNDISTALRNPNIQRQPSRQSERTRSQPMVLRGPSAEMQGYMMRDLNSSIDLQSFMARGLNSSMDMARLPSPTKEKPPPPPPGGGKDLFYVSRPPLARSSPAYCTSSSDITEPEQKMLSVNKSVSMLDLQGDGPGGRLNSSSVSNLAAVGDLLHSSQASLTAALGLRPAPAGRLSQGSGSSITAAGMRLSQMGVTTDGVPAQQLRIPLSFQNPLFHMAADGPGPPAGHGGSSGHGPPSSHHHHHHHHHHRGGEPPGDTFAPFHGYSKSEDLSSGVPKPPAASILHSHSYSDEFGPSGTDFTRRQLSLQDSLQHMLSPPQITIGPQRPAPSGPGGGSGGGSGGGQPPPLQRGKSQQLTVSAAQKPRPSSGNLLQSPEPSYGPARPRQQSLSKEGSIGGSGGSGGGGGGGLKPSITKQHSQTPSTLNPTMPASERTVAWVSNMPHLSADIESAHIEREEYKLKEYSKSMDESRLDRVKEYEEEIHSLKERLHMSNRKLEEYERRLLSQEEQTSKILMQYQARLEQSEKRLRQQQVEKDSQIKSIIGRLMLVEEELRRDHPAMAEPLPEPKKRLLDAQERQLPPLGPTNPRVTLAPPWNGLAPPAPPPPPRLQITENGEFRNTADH

[4] = target: PI3K (p85alpha regulatory subunit) (mouse (endogenous in mouse brain)) (UniProt P26450); test: as above
[5] = target: Neuroligin 3 (mouse (endogenous in mouse brain)) (UniProt Q8BYM5); test: as above
[6] = target: GluR2 (mouse (endogenous in mouse brain)) (UniProt P23819); test: co-IP; quantitative multiplex co-immunoprecipitation (QMI): IP antibodies on Luminex beads incubated overnight at 4 C with NP-40 lysate of P2 synaptosomes from mouse frontal cortex, probed with biotinylated antibodies and streptavidin-PE, read on a flow cytometer; seven ASD models (Shank3B-/-, Shank3 delta ex4-9+/-, Ube3a2xTG, E12.5 VPA, TSC2+/-, FMR1-/y, Cntnap2-/-) against littermate controls; only changes against control are told
[7] = target: Fyn Kinase (mouse (endogenous in mouse brain)) (UniProt P39688); test: as above
[8] = target: NMDAR1 (mouse (endogenous in mouse brain)) (UniProt P35438); test: as above
[9] = target: T1, Homer1 (mouse (endogenous in mouse brain)); test: as above
[10] = target: NMDAR2B (mouse (endogenous in mouse brain)) (UniProt Q01097); test: as above
[11] = target: SHANK3 (mouse (endogenous in mouse brain)) (UniProt Q4ACU6); test: as above
[12] = target: NMDAR2A (mouse (endogenous in mouse brain)) (UniProt P35436); test: as above
[13] = target: NMDAR1 (mouse (endogenous in mouse brain)) (UniProt P35438); test: co-IP; quantitative multiplex co-immunoprecipitation (QMI): IP antibodies on Luminex beads incubated overnight at 4 C with NP-40 lysate of P2 synaptosomes from mouse hippocampus, probed with biotinylated antibodies and streptavidin-PE, read on a flow cytometer; four ASD models (Shank3B-/-, Shank3 delta ex4-9+/-, Ube3a2xTG, E12.5 VPA) against littermate controls; only changes against control are told
[14] = target: SAP97 (mouse (endogenous in mouse brain)) (UniProt Q811D0); test: co-IP; quantitative multiplex co-immunoprecipitation (QMI): IP antibodies on Luminex beads incubated overnight at 4 C with NP-40 lysate of P2 synaptosomes from mouse frontal cortex, probed with biotinylated antibodies and streptavidin-PE, read on a flow cytometer; seven ASD models (Shank3B-/-, Shank3 delta ex4-9+/-, Ube3a2xTG, E12.5 VPA, TSC2+/-, FMR1-/y, Cntnap2-/-) against littermate controls; only changes against control are told

Substance: NMDAR2B (from UniProt Q01097 27-1482) (receptor)
- binding [1]: binds
- binding [2]: binds
- binding [3]: binds

Substance: Fyn Kinase (from UniProt P39688 1-537) (enzyme)
- binding [5]: binds

Substance: Neuroligin 3 (from UniProt Q8BYM5 35-825)
- binding [10]: binds
- binding [11]: binds
- binding [7]: binds
- binding [12]: binds

Continued, values first:

- binding [4]: binds
- binding [5]: binds
- binding [3]: binds
Substance: NMDAR2A (from UniProt P35436 23-1464) (receptor)

- binding [1]: binds
- binding [6]: binds
- binding [7]: binds
- binding [8]: binds
Substance: SHANK3 (from UniProt Q4ACU6 1-1730)

- binding [4]: binds
- binding [9]: binds
Substance: SAP97 (from UniProt Q811D0 1-905)

- binding [4]: binds
- binding [13]: binds
- binding [2]: binds
- binding [14]: binds
Substance: mGluR5 (from UniProt Q3UVX5 19-1203) (receptor)
